Record: PubChem BioAssay AID720505 (Drosophila RNAi Screening Center, 2013)

- Aim: 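Knock-downs that reduce calcium influx once internal stores are emptied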 (primary screen)
- Cell system: Drosophila S2R+ cells
- Knock-down reagent: long dsRNA against Drosophila genes
- Treatment: thapsigargin (2 µM) in calcium-free buffer to empty internal stores, then 2 mM calcium added back
- Measured: 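Fluo-4 signal in 384-well plates read on a FLIPR after thapsigargin (2 µM, calcium-free) store depletion and 2 mM calcium add-back; unnormalised mean endpoint per well; screen run twice, selected wells retested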
- Reading the numbers: calcium signal and retest calcium signal: higher = more calcium entry after store depletion
- Call rule: 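Knock-downs counted as hits when calcium entry dropped relative to STIM1 positive and Rho1 negative controls present on each plate; roughly 1500 genes called, with reductions of differing size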
- Meaning of the calls: active = called as lowering calcium entry; inactive = not called
The deposit covers about 20,000 reagents; below is an unselected part of those with a known target gene and a result. Over the whole deposit, about 2,100 (10%) are marked active. 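Raw plate signals without normalisation; calls rest on control-based scores that were not deposited; replicate 2 separates called from uncalled poorly.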 Reagents against one gene are numbered here. Not stated in the record: the amount of reagent, the time to read-out.

gene	dsRNA no.	calcium signal, replicate 1	calcium signal, replicate 2	retest calcium signal, replicate 1	retest calcium signal, replicate 2	Call
aln (allnighter)	1	84.4	90			inactive
CG15375	1	94.6	111			inactive
CR6900 (pseudo)	1	76.2	101			inactive
anchor	1	158	124			inactive
CkIalpha (Casein kinase Ialpha)	1	81.3	96.9			inactive
CkIalpha (Casein kinase Ialpha)	2	117	164			inactive
CkIalpha (Casein kinase Ialpha)	3	78	117			inactive
CDK2AP1 (CDK2-associated protein 1)	1	109	76.9			inactive
tin (tinman)	1	73.1	107			active
tin (tinman)	2	102	98.8			inactive
tin (tinman)	3	81.5	135			inactive
CG4806	1	119	179			inactive
Reg-2 (Rhythmically expressed gene 2)	1	61	121			active
CG13850	1	185	203			inactive
CG43315	1	99.2	137			inactive
PMCA (plasma membrane calcium ATPase)	1					active
PMCA (plasma membrane calcium ATPase)	2					active
PMCA (plasma membrane calcium ATPase)	3	49.6	59.4			active
yps (ypsilon schachtel)	1	89.9	86.3			inactive
CG3726	1	58.7	124	138	97.9	active
CG3726	2	114	142			inactive
XNP	1	65.9	91			active
PolD3 (DNA polymerase delta subunit 3)	1	80.2	108			inactive
Nle (Notchless)	1	112	120			inactive
eIF5 (eukaryotic translation initiation factor 5)	1	97	104			inactive
CG33278	1	69.3	53			inactive
CR30374 (pseudo)	1	123	138			inactive
Papss (PAPS synthetase)	1	150	119			inactive
CG42810	1	126	88.9			inactive
SMC5 (Structural maintenance of chromosomes 5)	1	105	103			inactive
Atg8a (Autophagy-related 8a)	1	124	118			inactive
pdm2 (POU domain protein 2)	1	131	107			inactive
pdm2 (POU domain protein 2)	2	121	109			inactive
pdm2 (POU domain protein 2)	3	65.5	77.5			active
Idh3a (Isocitrate dehydrogenase 3a)	1	126	96.2			inactive

The list goes on, starting with the last 5 of the part before.
gene	dsRNA no.	calcium signal, replicate 1	calcium signal, replicate 2	retest calcium signal, replicate 1	retest calcium signal, replicate 2	Call
Atg8a (Autophagy-related 8a)	1	124	118			inactive
pdm2 (POU domain protein 2)	1	131	107			inactive
pdm2 (POU domain protein 2)	2	121	109			inactive
pdm2 (POU domain protein 2)	3	65.5	77.5			active
Idh3a (Isocitrate dehydrogenase 3a)	1	126	96.2			inactive
CG7985	1	192	335			inactive
ERp60 (Endoplasmic reticulum p60)	1	151	143			inactive
wek (weckle)	1	99.1	85.5			inactive
Pros28.2 (retired record)	1	133	184			inactive
trus (toys are us)	1	146	110			inactive
CG5245	1	144	130			inactive
CG15545	1	158	164			inactive
CSN3 (COP9 signalosome subunit 3)	1	99.2	122			inactive
CG15237	1	109	114			inactive
CG43322	1	190	73.5			inactive
CG6204	1	192	154			inactive
iotaTry (iotaTrypsin)	1	120	231			inactive
Smyd3 (SET and MYND domain containing, class 3)	1	91.5	143			inactive
GstT1 (Glutathione S transferase T1)	1	124	150			inactive
Gpat4 (Glycerol-3-phosphate acyltransferase 4)	1	156	96.3			inactive
lncRNA:yar (yellow-achaete intergenic RNA)	1	7458	125			inactive
lncRNA:yar (yellow-achaete intergenic RNA)	2	177	88.7			inactive
CG10845	1	104	141			inactive
wry (weary)	1	228	107			inactive
wry (weary)	2	206	128			inactive
wry (weary)	3	91.9	161			inactive
rgr (regular)	1	212	233			inactive
rgr (regular)	2	169	167			inactive
CG5516	1	73.8	174			inactive
CG5516	2	144	92			inactive
dmt (dalmatian)	1	66.8	95.6			active
melt (melted)	1	86.5	61.2			inactive
gzl (godzilla E3 ubiquitin protein ligase)	1	91.7	103			inactive
rnh1 (ribonuclease H1)	1	84.1	122			inactive
CG3803	1	86.3	231			inactive
CG7634	1	100	131			inactive
l(3)S084402 (retired record)	1	99.3	89.8			inactive
Ostgamma (Oligosaccharide transferase gamma subunit)	1	164	225			inactive
Kif3C (Kinesin family member 3C)	1	93.2	145			inactive
Kif3C (Kinesin family member 3C)	2	90.2	155			inactive
Pex1 (Peroxin 1)	1	80.5	118			inactive
Spf45	1	203	86.8			inactive
Erasp (Endoplasmic reticulum stress-associated serine protease)	1	135	121			inactive
Nt5b (5' nucleotidase B)	1	161	148			inactive
Nt5b (5' nucleotidase B)	2	106	153			inactive
Nt5b (5' nucleotidase B)	3	78.4	93.4			inactive
Nt5b (5' nucleotidase B)	4	148	136			inactive
Tpi (Triose phosphate isomerase)	1	111	173			inactive
skl (sickle)	1	86.1	178			inactive
Su(P) (Suppressor of ref(2)P sterility)	1	75.8	124			inactive
CG10336	1	83.5	98.2			inactive
CR43361 (pseudo)	1	65.3	117			active
CG15035	1	265	114			inactive
r2d2	1	99.5	178			inactive
CG32679	1					inactive
CG3335	1	82.5	126			inactive
Pp1-87B (Protein phosphatase 1 at 87B)	1	90.2	183			inactive
Pp1-87B (Protein phosphatase 1 at 87B)	2	150	162			inactive
CG6484	1	125	91.1			inactive
Cpr60D (Cuticular protein 60D)	1	136	169			inactive
kz (kurz)	1	105	115			inactive
ppan (peter pan)	1	125	178			inactive
His2Av (Histone H2A variant)	1	165	192			inactive
CG30048	1	82.6	243			inactive
CG9368	1	101	104			inactive
Fas3 (Fasciclin 3)	1	71	206			inactive
Fas3 (Fasciclin 3)	2	113	101			inactive
Fas3 (Fasciclin 3)	3	112	199			inactive
CG30345	1	81.7	95.6			inactive
CG13659	1	289	135			inactive
CG1924	1	79.7	94			inactive
rig (rigor mortis)	1	149	105			inactive
rig (rigor mortis)	2	78.9	74.5			inactive
lig (lingerer)	1	171	200			inactive
lig (lingerer)	2	116	138			inactive
Arp5 (Actin-related protein 5)	1	178	289			inactive
